Reference: publication PMC4747493
Results are given in words; binding and its absence hold for the method and conditions named. Binding seen in cells or lysates may run through a third protein. Some entries that bind do so weakly or less than the wild type.

The chains behind the UniProt entries cited, without tags or fusion partners.
UniProt Q09472: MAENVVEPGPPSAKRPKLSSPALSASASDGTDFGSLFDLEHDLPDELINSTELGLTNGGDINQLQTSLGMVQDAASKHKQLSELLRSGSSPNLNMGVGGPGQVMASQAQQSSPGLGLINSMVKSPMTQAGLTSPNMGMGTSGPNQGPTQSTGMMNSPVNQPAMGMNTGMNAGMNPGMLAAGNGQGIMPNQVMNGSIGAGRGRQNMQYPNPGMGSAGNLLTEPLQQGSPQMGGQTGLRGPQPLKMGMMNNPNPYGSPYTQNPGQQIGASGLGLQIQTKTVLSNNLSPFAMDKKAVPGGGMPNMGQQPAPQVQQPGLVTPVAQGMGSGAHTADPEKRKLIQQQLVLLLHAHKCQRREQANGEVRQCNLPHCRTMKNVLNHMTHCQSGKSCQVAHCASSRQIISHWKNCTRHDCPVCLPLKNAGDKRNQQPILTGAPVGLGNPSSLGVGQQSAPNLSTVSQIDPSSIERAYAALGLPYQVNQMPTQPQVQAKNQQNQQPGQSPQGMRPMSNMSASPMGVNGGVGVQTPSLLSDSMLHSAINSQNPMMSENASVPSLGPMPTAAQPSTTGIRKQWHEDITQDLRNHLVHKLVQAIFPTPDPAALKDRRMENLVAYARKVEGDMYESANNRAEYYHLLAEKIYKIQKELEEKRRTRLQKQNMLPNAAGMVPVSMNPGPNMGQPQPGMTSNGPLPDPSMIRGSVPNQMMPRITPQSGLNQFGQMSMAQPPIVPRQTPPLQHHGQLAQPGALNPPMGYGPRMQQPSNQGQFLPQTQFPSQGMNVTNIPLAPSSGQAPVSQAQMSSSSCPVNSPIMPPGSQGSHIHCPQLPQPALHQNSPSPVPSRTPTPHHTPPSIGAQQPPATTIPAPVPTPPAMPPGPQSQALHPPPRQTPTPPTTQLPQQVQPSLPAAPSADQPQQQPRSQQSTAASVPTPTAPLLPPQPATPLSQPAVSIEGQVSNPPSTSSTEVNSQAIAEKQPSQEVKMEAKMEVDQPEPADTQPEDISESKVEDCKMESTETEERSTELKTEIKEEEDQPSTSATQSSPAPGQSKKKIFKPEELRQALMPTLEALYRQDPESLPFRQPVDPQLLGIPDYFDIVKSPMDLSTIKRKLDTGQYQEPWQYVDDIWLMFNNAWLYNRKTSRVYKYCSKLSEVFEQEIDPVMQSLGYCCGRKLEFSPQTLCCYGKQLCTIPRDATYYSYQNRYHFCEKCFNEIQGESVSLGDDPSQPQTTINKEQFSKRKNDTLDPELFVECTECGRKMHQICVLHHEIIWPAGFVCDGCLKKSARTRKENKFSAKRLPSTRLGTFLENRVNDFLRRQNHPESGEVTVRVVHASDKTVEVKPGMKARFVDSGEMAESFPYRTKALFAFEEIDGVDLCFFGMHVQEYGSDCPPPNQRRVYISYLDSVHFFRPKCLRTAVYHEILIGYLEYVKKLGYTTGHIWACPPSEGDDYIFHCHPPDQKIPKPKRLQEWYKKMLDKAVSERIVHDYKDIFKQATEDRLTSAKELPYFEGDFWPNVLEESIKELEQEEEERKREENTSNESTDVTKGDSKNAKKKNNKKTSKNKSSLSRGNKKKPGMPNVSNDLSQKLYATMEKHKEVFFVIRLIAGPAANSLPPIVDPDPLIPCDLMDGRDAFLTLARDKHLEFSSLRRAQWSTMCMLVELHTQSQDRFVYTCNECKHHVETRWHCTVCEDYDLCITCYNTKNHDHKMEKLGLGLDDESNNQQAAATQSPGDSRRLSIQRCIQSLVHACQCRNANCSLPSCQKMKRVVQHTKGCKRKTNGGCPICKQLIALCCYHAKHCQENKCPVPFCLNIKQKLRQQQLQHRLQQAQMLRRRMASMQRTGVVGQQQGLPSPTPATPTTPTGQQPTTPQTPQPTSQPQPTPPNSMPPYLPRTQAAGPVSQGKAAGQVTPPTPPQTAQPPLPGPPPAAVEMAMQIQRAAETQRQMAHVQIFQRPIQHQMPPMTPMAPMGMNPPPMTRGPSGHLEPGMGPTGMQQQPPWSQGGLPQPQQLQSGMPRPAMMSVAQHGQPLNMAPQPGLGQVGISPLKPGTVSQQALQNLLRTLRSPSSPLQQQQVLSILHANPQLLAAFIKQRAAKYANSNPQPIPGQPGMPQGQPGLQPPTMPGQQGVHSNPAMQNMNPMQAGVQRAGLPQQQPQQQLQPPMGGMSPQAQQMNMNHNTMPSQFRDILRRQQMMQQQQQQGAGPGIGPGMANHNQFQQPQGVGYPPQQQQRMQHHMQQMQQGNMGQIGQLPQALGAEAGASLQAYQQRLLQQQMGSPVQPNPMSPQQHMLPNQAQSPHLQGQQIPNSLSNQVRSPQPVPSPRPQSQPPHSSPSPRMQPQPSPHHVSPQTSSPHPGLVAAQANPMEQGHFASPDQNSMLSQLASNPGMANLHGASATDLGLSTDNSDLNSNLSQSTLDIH

Biological target: T1, DUSP4 (human (endogenous in MCF-7)) (UniProt Q13115)
T1 sequence: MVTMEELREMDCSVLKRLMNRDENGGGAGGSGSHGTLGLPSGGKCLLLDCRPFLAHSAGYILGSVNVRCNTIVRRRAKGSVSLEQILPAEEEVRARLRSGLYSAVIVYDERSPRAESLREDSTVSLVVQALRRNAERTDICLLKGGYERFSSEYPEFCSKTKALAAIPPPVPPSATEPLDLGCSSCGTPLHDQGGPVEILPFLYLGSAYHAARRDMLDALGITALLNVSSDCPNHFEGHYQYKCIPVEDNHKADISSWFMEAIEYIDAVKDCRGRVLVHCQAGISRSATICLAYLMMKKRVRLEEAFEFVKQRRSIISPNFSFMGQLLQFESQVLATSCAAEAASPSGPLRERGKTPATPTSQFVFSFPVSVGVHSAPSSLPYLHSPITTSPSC
Experiment: co-IP; half-ChIP: nuclear extracts of MCF-7 cells treated with vehicle or PMA for 60 h (MCF-7/PMA^AD); fixed chromatin sonicated to about 500 bp; soluble chromatin fraction incubated overnight at 4°C with anti-DUSP4 (sc-17821) and Protein A magnetic beads, or no antibody control; beads boiled in loading buffer and immunoblotted

binding: binds
Substance: p300 phosphorylated at Ser-1834 (from UniProt Q09472 1-2414) (enzyme)
